{"source": "patent US20120178666A1", "about": "(SHIRE LLC, priority 2009, published 2012)", "test_system": "gut motility", "assay": "Charcoal propulsion test (gut motility)", "assay_type": "in vivo", "details": "rat, oral", "procedure": "The effect of a drug on gut motility can be studied by means of the charcoal propulsion test.\nThe method used was based on that described by Takemori et al. (J. Pharmacol. Exp. Ther. 169:39, 1969). Test treatments were administered orally 60 minutes prior to an oral dose of a 10% suspension of charcoal in 2.5% gum Arabic (2 ml/kg). Twenty minutes after dosing with charcoal, the rats were sacrificed and the entire gastrointestinal tract was removed quickly and carefully. The distance that the charcoal meal had travelled toward the caecum was measured and expressed as a percentage of the total gut length.", "note": "Some of these results come from one statement about several compounds together."}
{"molecule": "CNCC(=O)N[C@@H](COC(=O)NC(=N)NC(=O)Cc1c(Cl)cccc1Cl)C(=O)O", "note": "[Compound 61, (S)-serine(guanfacine)-sarcosine carbamate di-trifluoroacetate]", "values": [{"measurement": "dose required to inhibit GIT transit to the same extent as guanfacine, as molar equivalents", "result": "≥ 10", "unit": "fold"}]}
{"molecule": "CNCC(=O)N[C@H](C(=O)O)[C@@H](C)OC(=O)NC(=N)NC(=O)Cc1c(Cl)cccc1Cl", "note": "[Compound 63, sarcosine-(2S,3R)-threonine(guanfacine) carbamate di-trifluoroacetate]", "values": [{"measurement": "dose required to inhibit GIT transit to the same extent as guanfacine, as molar equivalents", "result": "≥ 10", "unit": "fold"}]}
